The assay has as its target 3×FLAG-2×STREP-Zfp106 (mouse) (UniProt O88466). Put plainly: co-IP; Neuro-2a cells transfected with 3×FLAG-2×STREP-Zfp106 or parental vector; lysis with 100 U/ml benzonase, NaCl raised to 150 mM; anti-FLAG(M2) magnetic beads 4 hr at 4°C; western blot for endogenous TDP-43 and Nup107. Background: In western blotting, separated proteins are transferred to a membrane and probed.

Chains of the proteins cited; added tags and fusions are not shown.
UniProt O88466: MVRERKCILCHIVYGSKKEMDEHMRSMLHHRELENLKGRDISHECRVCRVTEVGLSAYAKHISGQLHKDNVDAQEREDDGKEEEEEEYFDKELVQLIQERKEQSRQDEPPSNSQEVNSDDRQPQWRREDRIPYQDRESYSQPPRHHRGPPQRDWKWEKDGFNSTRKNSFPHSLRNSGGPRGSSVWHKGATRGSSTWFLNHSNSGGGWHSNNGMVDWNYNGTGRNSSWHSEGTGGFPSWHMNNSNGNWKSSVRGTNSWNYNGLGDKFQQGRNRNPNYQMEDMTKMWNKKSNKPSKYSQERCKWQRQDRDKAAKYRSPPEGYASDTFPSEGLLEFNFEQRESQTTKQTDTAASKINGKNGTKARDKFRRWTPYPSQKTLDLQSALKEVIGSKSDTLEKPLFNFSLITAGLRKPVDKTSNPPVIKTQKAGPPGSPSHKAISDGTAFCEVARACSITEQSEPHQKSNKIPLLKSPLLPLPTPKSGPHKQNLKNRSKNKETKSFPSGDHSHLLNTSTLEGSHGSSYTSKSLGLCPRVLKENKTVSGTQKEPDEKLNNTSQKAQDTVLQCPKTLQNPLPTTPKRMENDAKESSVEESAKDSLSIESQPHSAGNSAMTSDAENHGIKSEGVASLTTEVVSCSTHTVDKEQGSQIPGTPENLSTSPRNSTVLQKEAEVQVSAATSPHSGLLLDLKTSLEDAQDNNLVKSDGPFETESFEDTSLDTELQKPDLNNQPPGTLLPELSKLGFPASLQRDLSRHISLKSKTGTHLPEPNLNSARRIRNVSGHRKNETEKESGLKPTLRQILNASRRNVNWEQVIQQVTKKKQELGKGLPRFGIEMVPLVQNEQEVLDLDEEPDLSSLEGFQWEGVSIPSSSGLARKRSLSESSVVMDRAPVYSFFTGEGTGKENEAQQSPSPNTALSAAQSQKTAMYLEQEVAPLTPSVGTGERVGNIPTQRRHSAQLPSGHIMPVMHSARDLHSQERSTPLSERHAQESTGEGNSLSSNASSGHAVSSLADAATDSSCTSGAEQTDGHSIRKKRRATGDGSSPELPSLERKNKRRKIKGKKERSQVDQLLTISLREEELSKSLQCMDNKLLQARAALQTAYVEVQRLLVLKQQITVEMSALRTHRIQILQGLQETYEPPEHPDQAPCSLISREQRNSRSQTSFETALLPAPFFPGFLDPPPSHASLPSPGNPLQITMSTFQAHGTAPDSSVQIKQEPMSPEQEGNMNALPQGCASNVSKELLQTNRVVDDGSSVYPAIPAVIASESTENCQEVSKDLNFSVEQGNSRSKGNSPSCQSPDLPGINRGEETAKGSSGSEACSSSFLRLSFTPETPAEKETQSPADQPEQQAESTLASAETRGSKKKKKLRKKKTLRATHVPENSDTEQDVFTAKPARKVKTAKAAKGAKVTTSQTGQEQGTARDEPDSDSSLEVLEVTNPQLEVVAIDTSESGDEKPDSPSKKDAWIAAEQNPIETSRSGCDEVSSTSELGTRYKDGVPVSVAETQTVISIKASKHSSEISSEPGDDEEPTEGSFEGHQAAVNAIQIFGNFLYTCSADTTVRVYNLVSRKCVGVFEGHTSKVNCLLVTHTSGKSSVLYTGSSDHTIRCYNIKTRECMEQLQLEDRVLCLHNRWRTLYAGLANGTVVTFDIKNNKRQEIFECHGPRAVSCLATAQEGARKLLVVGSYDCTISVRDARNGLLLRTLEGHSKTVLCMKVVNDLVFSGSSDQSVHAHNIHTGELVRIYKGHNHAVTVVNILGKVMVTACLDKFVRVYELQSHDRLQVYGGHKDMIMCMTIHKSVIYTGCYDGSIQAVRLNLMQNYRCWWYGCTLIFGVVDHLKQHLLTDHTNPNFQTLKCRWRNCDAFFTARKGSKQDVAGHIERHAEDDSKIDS
UniProt Q921F2: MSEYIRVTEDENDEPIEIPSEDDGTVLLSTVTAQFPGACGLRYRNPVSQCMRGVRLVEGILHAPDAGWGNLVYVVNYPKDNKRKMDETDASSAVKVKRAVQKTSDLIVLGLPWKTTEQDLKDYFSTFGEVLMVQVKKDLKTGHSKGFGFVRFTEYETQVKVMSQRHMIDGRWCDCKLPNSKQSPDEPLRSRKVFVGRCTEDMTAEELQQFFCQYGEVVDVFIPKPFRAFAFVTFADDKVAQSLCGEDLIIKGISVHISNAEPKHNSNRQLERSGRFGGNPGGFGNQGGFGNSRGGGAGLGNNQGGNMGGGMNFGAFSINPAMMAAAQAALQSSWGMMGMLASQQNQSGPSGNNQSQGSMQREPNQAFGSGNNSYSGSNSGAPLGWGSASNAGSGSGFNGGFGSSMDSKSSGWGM

No constants are given. Whether binding was seen depends on the method and setting. In cells and extracts the contact can be indirect. Some entries that bind do so weakly or less than the wild type.

The record followed here is paper PMC5283830, “Suppression of C9orf72 RNA repeat-induced neurotoxicity by the ALS-associated RNA-binding protein Zfp106”.

As for TDP43 (from UniProt Q921F2 1-414), the binding entry is “binds”.

B1: Nup107 (protein, UniProt Q8BH74 1-926)
chain: MDRSGFGGMSSPVIRDAEVTRTARKHSAHKRVLIQANQEDNFGTATPRSQIIPRTPSSFRQPFVTPSSRSLLRHPDISYILGTEGRSPRHTQSSGYLGNLSMVTNLDDSNWAAAFSSQRLGLYTNTEHHSMTEDVNLSTVMLREDDPGEAASMSMFSDFLHSFLKHSSTTVFDLVEEYENICGSQVNILSKIVSRATPGLQKFSKTASMLWLLQQEMVTWRLLASLYRDRIQSSLEEENMFAIAGINASEKMVVETLFQRDSLVRQSQLVVDWLESIAKDEIGEFSDNIEFYAKSVYWENTLHSLKQRQLLSHMGSTRPLVTELDPDAPIRQKLPLDDLDREDEVRLLKYLFTLIRAGMTEEAQRLCKRCGQAWRAATLEGWKLYHDPNVNGGTELEPVEGNPYRRIWKISCWRMAEDELFNKYERAIYAALSGNLKQLLPVCDTWEDTVWAYFRVMVDSLVEQEIRTSVMTQDDSEELPREYMEANWTLEKVFEELQATDKKRVLEENQEHYHIVQKFLILGDVDGLMDEFSKWLSKSGSSLPGHLLRFMTHLILFLRTLGLQTKEEVSIEVLKTYIQLLISEKHTSLIAFYTCHLPQDLAVAQYALFLEGVTEFEQRHQCLELAKEADLDVATITKTVVENICKKDNGEFSHHDLAPSLDTGTTEEDRLKIDVIDWLVFDPAQRAEALRQGNAIMRKFLALKKHEAAKEVFVKIPQDSIAEIYNQWEEQGMESPLPAEDDNAIREHLCIRAYLEAHETFNEWFKHMNSAPQKPTLLSQATFTEKVAYEHREKKYEMDHNIWKGHLDALTADVKEKMYNVLLFVDGGWMVDVREDAEDDPERTHQMVLLRKLCLPMLCFLLHTILHSTGQYQECLQLADMVSSERHKLYLVFSKEELRKLLQKLRESSLMLLDQGLDPLGYEIQS
For B1, the binding entry was “binds”.
